Where a name gives a salt, the structure may show the parent alone. For at least one compound, name, drawing or mass did not settle the structure.
Molecular target: sigma receptor
Assay: Sigma binding test (in vitro), inhibition of [3H] ditolylguanidine binding
Conditions: guinea pig central nervous system microsomes, 0.5 mg of prot/ml; ligand 2 nM; non-specific: 10 μM haloperidol
Procedure: b) Sigma binding test (in vitro)
The affinity of the compounds of the invention to the sigma receptor in brain tissue is evaluated by the degree of inhibition of the binding of a sigma site radioligand in in vitro competition experiments.
The experiment protocol used is that described by WEBER et at. Proc. Nat. Acad. Sci. USA, (1986), 83, 8784-8788.
The ligand is 1,2-di-(2-[5-^3 H]tolyl)guanidine (Dupont de Nemours--55 Ci/mmol) at a final concentration of 2 nM.
The membrane preparation is a suspension of central nervous system microsomes of a guinea pig used at a final concentration of 0.5 mg of prot/ml.
The non-specific fixation is determined in the presence of 10 μM of haloperidol.
The results, given in Table III, to illustrate the invention are expressed at IC50 =K.0.5 (M)

`CN(C(=O)OC1CCCCC1)C1CCN(CC2Cc3ccccc32)CC1` (stereo not shown) [Example 18, Cyclohexyl N-[(benzocyclobuten-1-ylmethyl)-piperid-4-yl]-N-methylcarbamate hydrochloride] showed an IC50 of 0.08 µM.

— patent US5214055A, “Aminopiperidine 4-oxo-4H-chromen-2-yl compounds” (Adir et Compagnie, priority 1990, dated 1993)
